# Reference: the supplement of paper PMC12067093, “Discovery and optimisation of a covalent ligand for TRIM25 and its application to targeted protein ubiquitination” (Chemical Science, 2025)
# Some of the results follow.
# Compound: Cc1cc(ccc1-c1ccccc1)C(=O)N1CCCN(CC1)C(=O)CCl [compound 10]
# Test: probe-labelled cysteine peptide fold change vs DMSO (competition) (log2 fold change); higher = less target engagement (more negative = stronger competition)
# Settings: THP-1, incubation time: 4 h
# 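Also: competitive profiling in live THP-1 cells: cysteine peptides tagged with an iodoacetamide desthiobiotin (IA-DTB) probe, intensity after compound treatment relative to DMSO-treated cells.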
Target,probe-labelled cysteine peptide fold change (10 µM),probe-labelled cysteine peptide fold change (50 µM)
PPP4C_P60510_162_IFCVHGGLSPSIQTLDQIR (UniProt P60510),-0.0185,0.298
PPP1CC_P36873_245_FLHKHDLDLICR (UniProt P36873),-0.206,-0.72
PREPL_Q4J6C6_409_NCPFQLCSPIRPPK (UniProt Q4J6C6),0.0194,0.034
PPP1R3D_O95685_60_APPPTPAPSGCDPR (UniProt O95685),-0.238,-0.331
PPP1R3D_O95685_291_GECEESWIHFI (UniProt O95685),-0.0489,-0.485
PPP1R8_Q12972_67_NPDLCDFTIDHQSCSR (UniProt Q12972),0.00106,0.115
PRC1_O43663_80_ELNTLCSELHVEPFQEEGETTILQLEK (UniProt O43663),0.288,0.298
PPT1_P50897_45+46_ALQHLDPPAPLPLVIWHGMGDSCCNPLSMGAIK (UniProt P50897),-0.126,-0.385
PPP2R1A_P30153_377_DNTIEHLLPLFLAQLKDECPEVR (UniProt P30153),-0.217,-0.731
PRDX1_Q06830_71_LNCQVIGASVDSHFCHLAWVNTPK (UniProt Q06830),0.0865,-0.0549
PPP4R1_Q8TF05_174_VCPVLIELTAPDSNDDVK (UniProt Q8TF05),-0.0307,0.197
PPP1CC_P36873_202_RIMRPTDVPDQGLLCDLLWSDPDKDVLGWGENDR (UniProt P36873),-0.051,-0.733
PPP6R1_Q9UPN7_37_FDLHTSSHLDTLLEREDLSLPELLDEEDVLQECK (UniProt Q9UPN7),-0.0534,-0.305
PPP1R12C_Q9BZL4_211_CWLNGGAMPEAR (UniProt Q9BZL4),-0.106,-0.624
PPM1H_Q9ULR3_56_FPYGRPEFLGLSQDEVECSADHIARPILILK (UniProt Q9ULR3),-0.0772,0.121
PRDM2_Q13029_875_ESHSVQPTCSAVK (UniProt Q13029),-0.0669,-0.176
PPP1R9B_Q96SB3_270_CPAGQQPPQHR (UniProt Q96SB3),-0.0566,-0.264
PRCP_P42785_394_ELSDDCFQQWGVRPR (UniProt P42785),0.0699,0.275
PPP4R3A_Q6IN85_135_DPSVDITQDLVDESEEERFDDMSSPGLELPSCELSR (UniProt Q6IN85),-0.303,-0.256
PPM1G_O15355_241_GTEAGQVGEPGIPTGEAGPSCSSASDK (UniProt O15355),0.0822,0.026
PRDX6_P30041_47_DFTPVCTTELGR (UniProt P30041),-0.122,-0.164

Target,probe-labelled cysteine peptide fold change (10 µM),probe-labelled cysteine peptide fold change (50 µM)
PPP6R2_O75170_665_FGAPHASESCSK (UniProt O75170),-0.151,-0.338
PREX1_Q8TCU6_558_LVDWLLAQGDCQTR (UniProt Q8TCU6),0.0221,0.0375
PPIP5K2_O43314_382_CVIAVIR (UniProt O43314),-0.0316,0.0615
PREX1_Q8TCU6_836_LSLCEDSPMVTLTVDNVHLEHGVVYEYVSTAGVR (UniProt Q8TCU6),-0.0714,0.185
PPP1R3D_O95685_26_SLSCLSDLDGGVALEPR (UniProt O95685),-0.329,-0.597
PREB_Q9HCU5_378_CQLHLLPSRR (UniProt Q9HCU5),0.0552,0.335
PPM1H_Q9ULR3_239_KIPHECLVIGALESAFK (UniProt Q9ULR3),-0.0444,-0.137
PPP1R10_Q96QC0_912_GHDGGHSHGGDMSNRPVCR (UniProt Q96QC0),0.0852,-0.0876
PREB_Q9HCU5_161_VVCFNHDNTLLATGGTDGYVR (UniProt Q9HCU5),0.282,0.269
PRDX1_Q06830_71+83_LNCQVIGASVDSHFCHLAWVNTPK (UniProt Q06830),0.169,-0.0725
PPP6R2_O75170_769_CSSPVDTECSHAEGSR (UniProt O75170),-0.143,0.213
PPP1R11_O60927_62_CCCIYEK (UniProt O60927),-0.000995,-0.111
PRDX3_P30048_60_LFSTSSSCHAPAVTQHAPYFK (UniProt P30048),-0.0465,0.0639
PPP1R18_Q6NYC8_611_ALIVDESCRR (UniProt Q6NYC8),-0.341,-0.164
PPP6R3_Q5H9R7_844_CAAPRPPSSSPEQR (UniProt Q5H9R7),0.018,-0.199
PREX1_Q8TCU6_936_IACYQEFAAQLK (UniProt Q8TCU6),0.102,-0.184
PPP6R1_Q9UPN7_216_DENQHSNASQSLCDIIR (UniProt Q9UPN7),-0.28,0.182
PRDX4_Q13162_51_TREEECHFYAGGQVYPGEASR (UniProt Q13162),-0.132,0.0047
PRAME_P78395_188_EGACDELFSYLIEK (UniProt P78395),-0.0075,-0.148
PREPL_Q4J6C6_160_LDQPFIDCIR (UniProt Q4J6C6),-0.024,-0.161
PRDX2_P32119_70_LGCEVLGVSVDSQFTHLAWINTPRK (UniProt P32119),0.198,-0.115

Target,probe-labelled cysteine peptide fold change (10 µM),probe-labelled cysteine peptide fold change (50 µM)
PPME1_Q9Y570_312_GLSNLFLSCPIPK (UniProt Q9Y570),0.0321,0.192
PPP1CC_P36873_202_IMRPTDVPDQGLLCDLLWSDPDK (UniProt P36873),-0.146,0.269
PPP2R5C_Q13362_270_SLSVYHPQLAYCVVQFLEK (UniProt Q13362),0.187,0.194
PRDX4_Q13162_245_HGEVCPAGWKPGSETIIPDPAGK (UniProt Q13162),-0.102,-0.0328
PPME1_Q9Y570_347_FQMQVLPQCGHAVHEDAPDK (UniProt Q9Y570),-0.0465,-0.255
PREB_Q9HCU5_280_QPPPCYLTAWDGSNFLPLR (UniProt Q9HCU5),0.0926,0.175
PPP1CB_P62140_201_IMRPTDVPDTGLLCDLLWSDPDK (UniProt P62140),-0.0215,0.368
PRC1_O43663_136_LLQEQDQELCEILCMPHYDIDSASVPSLEELNQFR (UniProt O43663),-0.0146,-0.0476
PPWD1_Q96BP3_98_DVITHVVCTK (UniProt Q96BP3),0.146,0.231
PPP4R1_Q8TF05_663_QNWHCLR (UniProt Q8TF05),0.0257,-0.088
PPP6C_O00743_192_GAFCDLVWSDPEDVDTWAISPR (UniProt O00743),0.077,-0.255
PPP2R1A_P30153_504_MTTLFCINVLSEVCGQDITTK (UniProt P30153),-0.0539,0.11
PREB_Q9HCU5_378_CQLHLLPSR (UniProt Q9HCU5),0.0644,0.31
PPIP5K2_O43314_488_VQLTYLPHGCPK (UniProt O43314),-0.0857,-0.304
PPIP5K2_O43314_49_QIVVGICSMAK (UniProt O43314),-0.0903,-0.046
PPWD1_Q96BP3_287_AYPTSVCFSPDGK (UniProt Q96BP3),0.0829,0.156
PRDX2_P32119_70_LGCEVLGVSVDSQFTHLAWINTPR (UniProt P32119),0.0461,0.163
PPOX_P50336_167_LGPEVASLAMDSLCR (UniProt P50336),0.349,0.124
PREX1_Q8TCU6_1612_CIMQATDIMR (UniProt Q8TCU6),-0.0971,0.0897
PPM1G_O15355_13_CSGDGVGAPR (UniProt O15355),-0.102,-0.117
PPP4C_P60510_193_KQEVPHDGPMCDLLWSDPEDTTGWGVSPR (UniProt P60510),-0.0839,-0.279

# Not a retest: an excerpt of the list.
Target,probe-labelled cysteine peptide fold change (10 µM),probe-labelled cysteine peptide fold change (50 µM)
PPME1_Q9Y570_312_GLSNLFLSCPIPK (UniProt Q9Y570),0.0321,0.192
PPP1CC_P36873_202_IMRPTDVPDQGLLCDLLWSDPDK (UniProt P36873),-0.146,0.269
PPP2R5C_Q13362_270_SLSVYHPQLAYCVVQFLEK (UniProt Q13362),0.187,0.194
PRDX4_Q13162_245_HGEVCPAGWKPGSETIIPDPAGK (UniProt Q13162),-0.102,-0.0328

# Continuation:

Target,probe-labelled cysteine peptide fold change (10 µM),probe-labelled cysteine peptide fold change (50 µM)
PPP3R1_P63098_154_ISFEEFCAVVGGLDIHK (UniProt P63098),0.193,0.173
PREP_P48147_57_ITVPFLEQCPIR (UniProt P48147),-0.283,-0.0531
PRDX2_P32119_70_KLGCEVLGVSVDSQFTHLAWINTPR (UniProt P32119),0.0933,0.0312
PPP2R2A_P63151_398_KVCASGK (UniProt P63151),0.0616,-0.0498
PPP1CB_P62140_61_ICGDIHGQYTDLLR (UniProt P62140),0.129,0.183
PREX1_Q8TCU6_1583_LGACQMVMCGTGMQR (UniProt Q8TCU6),0.0633,0.0388
PPM1H_Q9ULR3_239_IPHECLVIGALESAFK (UniProt Q9ULR3),-0.0964,-0.195
PPT1_P50897_152_CPGESSHICDFIR (UniProt P50897),-0.202,-0.114
PPP4R2_Q9NY27_296_QHCTEEDEEEDEEEEEESFMTSR (UniProt Q9NY27),-0.407,-0.304
PPP6R3_Q5H9R7_431_CQLIER (UniProt Q5H9R7),0.142,0.135
PREX1_Q8TCU6_572_EEAVALGVGLCNNGFMHHVLEK (UniProt Q8TCU6),0.0448,-0.00475
PPP5C_P53041_208_KCAYQILVQVK (UniProt P53041),0.289,-0.402
PRDX3_P30048_229_AFQYVETHGEVCPANWTPDSPTIK (UniProt P30048),-0.104,0.126
PPP4C_P60510_235_GAGYLFGSDVVAQFNAANDIDMICR (UniProt P60510),0.071,0.0638
PPP1R3G_B7ZBB8_76_EEAAPQEQEELLECR (UniProt B7ZBB8),-0.204,-0.563
PPP3CA_Q08209_256_GCSYFYSYPAVCEFLQHNNLLSILR (UniProt Q08209),-0.271,-0.0718
PRC1_O43663_236_SQNEAVCEGLR (UniProt O43663),0.388,0.159
PPP4R2_Q9NY27_30_EVCPVLDQFLCHVAK (UniProt Q9NY27),0.0564,-0.311
